Laboratory results reported in the supplement of paper PMC4604168 (melanoma cell lines).
The other results are listed elsewhere or left out. Single values are uncertain, as repeats are few or missing.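 Imaging used 1,536-well plates; nuclei positive for cleaved PARP by antibody were divided by total DNA-stained nuclei to yield the apoptosis fraction. Doses for screening kept most cells viable, and cell lines differ markedly in resting and induced cleaved-PARP levels.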

Key:
Experiment in all cases: cleaved PARP positive nuclei fraction relative to DMSO control; melanoma cells; higher = more apoptosis
Details in all cases: library dose: low library concentration; 72 h
[1] = system: MZ2-MEL
[2] = system: MeWo
[3] = system: RPMI7951
[4] = system: RVH-421
[5] = system: SkMel28
[6] = system: SkMel30
[7] = system: SkMel5
[8] = system: UACC257
[9] = system: UACC62

SMILES | cleaved PARP positive nuclei fraction [1] | cleaved PARP positive nuclei fraction [2] | cleaved PARP positive nuclei fraction [3] | cleaved PARP positive nuclei fraction [4] | cleaved PARP positive nuclei fraction [5] | cleaved PARP positive nuclei fraction [6] | cleaved PARP positive nuclei fraction [7] | cleaved PARP positive nuclei fraction [8] | cleaved PARP positive nuclei fraction [9]
C=CCn1c(=O)c2cnc(Nc3ccc(N4CCN(C)CC4)cc3)nc2n1-c1cccc(C(C)(C)O)n1 + COc1cc2ncnc(Nc3ccc(Oc4ccccc4)cc3)c2cc1OC [SrcI1] (first compound 0.02 µM, partner dose 2 µM) | 60.6% | 87.9% | 73.5% | 20.7% | 177% | 102% | 34.9% | 112% | 113%
C[C@]1(c2nc3c(C(N)=O)cccc3[nH]2)CCCN1 [Veliparib] + O=S(=O)(c1ccccc1)N(CC(F)(F)F)c1ccc(C(O)(C(F)(F)F)C(F)(F)F)cc1 [T0901317] (first compound 1.4 µM, partner dose 1.4 µM) | 62.5% | 115% | 42.3% | 112% | 119% | 27.8% | 68.9% | 196% | 90.7%
CC(C)(C)c1cnc(CSc2cnc(NC(=O)C3CCNCC3)s2)o1 + O=c1cc(-c2cccc3c2Sc2ccccc2S3)oc(N2CCOCC2)c1 [KU55933] (first compound 0.01 µM, partner dose 1 µM) | 106% | 29.9% | 91.6% | 117% | 257% | 49.5% | 85.5% | 157% | 143%
COc1cc(Nc2ncc(F)c(Nc3ccc4c(n3)NC(=O)C(C)(C)O4)n2)cc(OC)c1OC [Tamatinib] + Oc1cc(-c2nc(-c3ccccc3)[nH]c2-c2ccncc2)ccc1Cl [L779450] (first compound 0.4 µM, partner dose 0.2 µM) | 163% | 113% | 252% | 68.7% | 247% | 32.1% | 62.2% | 181% | 113%
OCCn1cc(-c2cnc3nnn(Cc4ccc5ncccc5c4)c3n2)cn1 + Oc1cc(-c2nc(-c3ccccc3)[nH]c2-c2ccncc2)ccc1Cl [L779450] (first compound 1 µM, partner dose 0.2 µM) | 81.9% | 99.8% | 41.8% | 86.3% | 66.6% | 160% | 69% | 109% | 86.1%
Nc1cccc2c1CN(C1CCC(=O)NC1=O)C2=O (centres undefined) [lenalidomide] + O=c1cc(-c2cccc3c2Sc2ccccc2S3)oc(N2CCOCC2)c1 [KU55933] (first compound 1 µM, partner dose 1 µM) | 104% | 154% | 226% | 42.4% | 102% | 229% | 124% | 51.7% | 428%
Nc1cccc2c1CN(C1CCC(=O)NC1=O)C2=O (centres undefined) [lenalidomide] + O=S(=O)(c1ccccc1)N(CC(F)(F)F)c1ccc(C(O)(C(F)(F)F)C(F)(F)F)cc1 [T0901317] (first compound 1 µM, partner dose 1.4 µM) | 91% | 150% | 91.9% | 422% | 123% | 26.1% | 77.8% | 179% | 80.1%
Cc1nc(Nc2ncc(C(=O)Nc3c(C)cccc3Cl)s2)cc(N2CCN(CCO)CC2)n1 [dasatanib] + O=c1cc(-c2cccc3c2Sc2ccccc2S3)oc(N2CCOCC2)c1 [KU55933] (first compound 0.004 µM, partner dose 1 µM) | 146% | 38.2% | 63.6% | 83.5% | 78.2% | 602% | 61.2% | 142% | 92.1%
Cn1c(Nc2ccc(C(F)(F)F)cc2)nc2cc(Oc3ccnc(-c4ncc(C(F)(F)F)[nH]4)c3)ccc21 + N#Cc1c(O)c2c(-c3ccc(-c4ccccc4O)cc3)csc2[nH]c1=O [A769662] (first compound 0.08 µM, partner dose 2 µM) | 93.1% | 41.1% | 61.4% | 90.8% | 701% | 128% | 41.3% | 1710% | 173%
COc1cc(Nc2ncc(F)c(Nc3ccc4c(n3)NC(=O)C(C)(C)O4)n2)cc(OC)c1OC [Tamatinib] + N#Cc1c(O)c2c(-c3ccc(-c4ccccc4O)cc3)csc2[nH]c1=O [A769662] (first compound 0.4 µM, partner dose 2 µM) | 124% | 237% | 84.1% | 97.9% | 182% | 20.9% | 38.6% | 146% | 88.5%
Cc1nc(Nc2ncc(C(=O)Nc3c(C)cccc3Cl)s2)cc(N2CCN(CCO)CC2)n1 [dasatanib] + O=C(Nc1ccccc1)c1cc([N+](=O)[O-])ccc1Cl [GW9662] (first compound 0.004 µM, partner dose 2 µM) | 214% | 58.8% | 52.4% | 49% | 126% | 38.7% | 58.5% | 177% | 37.8%
CO[C@@H]1[C@H](N(C)C(=O)c2ccccc2)C[C@H]2O[C@]1(C)n1c3ccccc3c3c4c(c5c6ccccc6n2c5c31)C(=O)NC4 [Midostaurin] + COc1ccc(-c2ccc3c(N4CCOCC4)nc(N4C[C@@H](C)O[C@@H](C)C4)nc3n2)cc1CO [KU0063794] (first compound 0.08 µM, partner dose 0.02 µM) | 68.7% | 124% | 91.1% | 194% | 126% | 26.6% | 58.6% | 306% | 153%
CC(C)(C)c1cnc(CSc2cnc(NC(=O)C3CCNCC3)s2)o1 + Cn1cc(/C=C2\C(=O)Nc3cccnc32)c2ccccc21 [GW441756] (first compound 0.01 µM, partner dose 0.4 µM) | 105% | 48.1% | 246% | 177% | 149% | 26% | 65.3% | 161% | 79%
Cn1c(Nc2ccc(C(F)(F)F)cc2)nc2cc(Oc3ccnc(-c4ncc(C(F)(F)F)[nH]4)c3)ccc21 + CCCCCCCCCCCC1=C(O)C(=O)C=C(O)C1=O [Embelin] (first compound 0.08 µM, partner dose 1.2 µM) | 120% | 133% | 250% | 216% | 383% | 47% | 144% | 429% | 411%
CC(C)(C)c1cnc(CSc2cnc(NC(=O)C3CCNCC3)s2)o1 + CCc1ccc(CCOc2ccc(CC3SC(=O)NC3=O)cc2)nc1 [pioglitazone] (first compound 0.01 µM, partner dose 2 µM) | 28.6% | 99.3% | 46.2% | 72.9% | 155% | 29.1% | 28.9% | 139% | 75.8%
Cc1ccc(NC(=O)c2cccc(N(C)C)c2)cc1NC(=O)c1ccc(O)cc1 + c1cc(-c2cnn3cc(-c4ccc(OCCN5CCCCC5)cc4)cnc23)ccn1 [Dorsomorphin] (first compound 2 µM, partner dose 0.4 µM) | 61.7% | 111% | 300% | 251% | 110% | 22.5% | 67.6% | 150% | 112%
Cc1nc(Nc2ncc(C(=O)Nc3c(C)cccc3Cl)s2)cc(N2CCN(CCO)CC2)n1 [dasatanib] + COc1ccc(COc2ccc(Cc3cnc(N)nc3N)cc2OC)cc1 [GW2580] (first compound 0.004 µM, partner dose 1 µM) | 98.1% | 80.2% | 127% | 74.3% | 198% | 47.1% | 41.3% | 184% | 83.3%
CO[C@@H]1[C@H](N(C)C(=O)c2ccccc2)C[C@H]2O[C@]1(C)n1c3ccccc3c3c4c(c5c6ccccc6n2c5c31)C(=O)NC4 [Midostaurin] + N#Cc1c(O)c2c(-c3ccc(-c4ccccc4O)cc3)csc2[nH]c1=O [A769662] (first compound 0.08 µM, partner dose 2 µM) | 117% | 37.8% | 43.2% | 77.3% | 73.6% | 177% | 68.6% | 53.9% | 178%
O=C(Nc1cccc(Cl)c1)Nc1ncc(CCNc2ncnc3ccsc23)s1 + Oc1cc(-c2nc(-c3ccccc3)[nH]c2-c2ccncc2)ccc1Cl [L779450] (first compound 0.0008 µM, partner dose 0.2 µM) | 60.6% | 48.4% | 43.9% | 375% | 110% | 20.9% | 27.6% | 104% | 84.6%
O=C(Nc1cccc(Cl)c1)Nc1ncc(CCNc2ncnc3ccsc23)s1 + O=C(Nc1ccccc1)c1cc([N+](=O)[O-])ccc1Cl [GW9662] (first compound 0.0008 µM, partner dose 2 µM) | 122% | 519% | 74.4% | 39.7% | 130% | 32.1% | 64.2% | 94% | 56.1%
Cn1c(Nc2ccc(C(F)(F)F)cc2)nc2cc(Oc3ccnc(-c4ncc(C(F)(F)F)[nH]4)c3)ccc21 + CC(C)CCN1c2nc(Nc3cc(F)c(O)c(F)c3)ncc2N(C)C(=O)C1C [BID1870] (first compound 0.08 µM, partner dose 0.2 µM) | 131% | 157% | 142% | 135% | 315% | 96.2% | 80.3% | 515% | 353%
COc1cc(Nc2ncc(F)c(Nc3ccc4c(n3)NC(=O)C(C)(C)O4)n2)cc(OC)c1OC [Tamatinib] + O=c1cc(-c2cccc3c2Sc2ccccc2S3)oc(N2CCOCC2)c1 [KU55933] (first compound 0.4 µM, partner dose 1 µM) | 112% | 74.9% | 92.5% | 59.2% | 73.2% | 102% | 29.1% | 239% | 183%
Cn1nnc2c(C(N)=O)ncn2c1=O [temozolomide] + COc1cc(N2CCC(N3CCN(C)CC3)CC2)ccc1Nc1ncc(Cl)c(Nc2ccccc2S(=O)(=O)C(C)C)n1 [NVP-TAE684] (first compound 2 µM, partner dose 0.08 µM) | 101% | 126% | 88.8% | 45.4% | 87.4% | 36.8% | 86.5% | 64.2% | 217%
CC(C)(C)c1cnc(CSc2cnc(NC(=O)C3CCNCC3)s2)o1 + CCCCCCCCCCCC1=C(O)C(=O)C=C(O)C1=O [Embelin] (first compound 0.01 µM, partner dose 1.2 µM) | 57.2% | 51.2% | 86.8% | 41.2% | 118% | 17.4% | 97.4% | 90.7% | 350%
O=C(Nc1cccc(Cl)c1)Nc1ncc(CCNc2ncnc3ccsc23)s1 + CC(C)CCN1c2nc(Nc3cc(F)c(O)c(F)c3)ncc2N(C)C(=O)C1C [BID1870] (first compound 0.0008 µM, partner dose 0.2 µM) | 74.2% | 53.6% | 80.3% | 88% | 116% | 42.1% | 32.8% | 140% | 163%
C#Cc1cccc(Nc2ncnc3cc(OCCOC)c(OCCOC)cc23)c1 [erlotinib] + O=C1NC(=O)/C(=C/c2ccc(-c3ccc(F)cc3O)o2)S1 [AS252424] (first compound 0.8 µM, partner dose 1 µM) | 49.3% | 135% | 75.8% | 109% | 93.6% | 111% | 35.1% | 106% | 172%

Taken from above.
Value for Cc1nc(Nc2ncc(C(=O)Nc3c(C)cccc3Cl)s2)cc(N2CCN(CCO)CC2)n1 [dasatanib] + O=C(Nc1ccccc1)c1cc([N+](=O)[O-])ccc1Cl [GW9662] (first compound 0.004 µM, partner dose 2 µM) under cleaved PARP positive nuclei fraction [3]: 52.4%
Value for O=C(Nc1cccc(Cl)c1)Nc1ncc(CCNc2ncnc3ccsc23)s1 + O=C(Nc1ccccc1)c1cc([N+](=O)[O-])ccc1Cl [GW9662] (first compound 0.0008 µM, partner dose 2 µM) under cleaved PARP positive nuclei fraction [6]: 32.1%
